The other results are listed elsewhere or left out.

The target in this assay is T1, OsSMF1 (Oryza sativa, UniProt Q6ZLB0 1-436).
T1 sequence: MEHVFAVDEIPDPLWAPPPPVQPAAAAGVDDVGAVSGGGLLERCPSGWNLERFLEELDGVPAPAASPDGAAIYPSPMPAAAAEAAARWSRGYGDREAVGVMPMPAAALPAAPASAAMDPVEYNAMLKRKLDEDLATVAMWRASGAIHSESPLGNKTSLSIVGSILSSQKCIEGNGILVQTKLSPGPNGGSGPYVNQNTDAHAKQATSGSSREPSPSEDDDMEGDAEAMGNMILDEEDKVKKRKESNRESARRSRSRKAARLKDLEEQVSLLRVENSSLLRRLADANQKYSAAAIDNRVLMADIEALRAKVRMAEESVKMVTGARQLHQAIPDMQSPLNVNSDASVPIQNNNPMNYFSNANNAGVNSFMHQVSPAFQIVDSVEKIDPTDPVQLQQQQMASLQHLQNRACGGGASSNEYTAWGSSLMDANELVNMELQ
Description: protein-binding microarray (RPBM); PBS, 2% BSA, 51.3 ng/ul salmon testes DNA, 50 uM zinc acetate, 200 nM TF, 25 C, 1 h; high values mean tight binding. Particulars: protein: recombinant; tags: N-terminal polyhistidine and DsRed monomer fusion (pET32a); chain copies: 2; label: CyDye5-dUTP incorporated in the synthesized complementary strand; 3' TTTTT single-stranded linker to array surface; dsDNA, one strand shown. The method in brief: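 Transcription factors were each fused at the N-terminus to a polyhistidine tag plus DsRed and expressed in E. coli BL21-CodonPlus before Ni–NTA purification. Binding to a double-stranded custom Agilent array was carried out with 200 nM protein at 25 °C for 1 h in PBS, 2% BSA, salmon testes DNA and 50 µM zinc acetate. The binding signal is per-feature fluorescence intensity, in arbitrary units, on an Axon 4000B scanner.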
For the sequence “CCATCACCAACGTGCCCATCCGAACAAGCGTTGGCGGCAGCGGAGTCACCTAGTGCAG”, the binding signal is 24900 fluorescence intensity (a.u.). The same measure for “CAACACGCTCGATATCATCTAGTTAAACTAACCTAGTGTGCGGAGTCACCTAGTGCAG”: 42700 fluorescence intensity (a.u.); for “ACCACCGAATCCTACCCATACACGTGTCCCCAAAATCAATCGGAGTCACCTAGTGCAG”: 6710 fluorescence intensity (a.u.).

On to “GGTCACATTCACATCGCACCCAAGTTGCGGACGTTTCAGCCGGAGTCACCTAGTGCAG”, for which the binding signal was 33900 fluorescence intensity (a.u.). As to “TGAATCCATCCACTAATCCATCAAATTAAATAAGTTCTTGCGGAGTCACCTAGTGCAG”, the binding signal was 28700 fluorescence intensity (a.u.). “CTTAGTCCCACTTCAGGTGTCACATCATTTAAACGTGAGGCGGAGTCACCTAGTGCAG”: the binding signal is 4320 fluorescence intensity (a.u.). Turning to “TAGCTGCGGTGCGCGCCTATTCTTGGCGCCATAATGAAGCCGGAGTCACCTAGTGCAG”, the binding signal was 3510 fluorescence intensity (a.u.). The result for “GTTTTGACCCGGTTTTGGTCTACGTGGCGCTGAGTCAGCGCGGAGTCACCTAGTGCAG” reads 29900 fluorescence intensity (a.u.).

With “GCGCTGCCACCCCGGCGCCCACGGAGGTCGACGCCAGCCACGGAGTCACCTAGTGCAG”, the binding signal was 3210 fluorescence intensity (a.u.). Consider “CAGCAAGAGCAAACCTGTCGCGTCCCCATTCCAAGCCCGCCGGAGTCACCTAGTGCAG”, for which the binding signal is 3160 fluorescence intensity (a.u.).

Turning to “AATGAAAGATTTCCTTTCAATGACCTCGTCAGTTAATTTTCGGAGTCACCTAGTGCAG”, the binding signal was 3650 fluorescence intensity (a.u.). In the case of “TGCTACAGCTACAATGTGGCGTCACTATGGGTATACACATCGGAGTCACCTAGTGCAG”, the binding signal is 23800 fluorescence intensity (a.u.). Turning to “AAACAAGACATACACATACTTATTGTGTTTTGTCACGTCACGGAGTCACCTAGTGCAG”, the binding signal is 6450 fluorescence intensity (a.u.). With “GGGATCTGTAATGTTGGTATACGACACAGCTTGCAGAAAACGGAGTCACCTAGTGCAG”, the binding signal was 4840 fluorescence intensity (a.u.). With “CAATCCTCTTTGGGAGGATATGGCTTTTGAGTTTGTGAATCGGAGTCACCTAGTGCAG”, the binding signal was 3290 fluorescence intensity (a.u.).

With “CATGTAGAACCCACATGAGTCAATCACATGTGGGTCAGGACGGAGTCACCTAGTGCAG”, the binding signal is 3990 fluorescence intensity (a.u.). The result for “ACTGGCTTCAATTTATCTATAGCTAATCTAATAGCTAATTCGGAGTCACCTAGTGCAG” reads 33900 fluorescence intensity (a.u.). The same measure for “ACCGTTTTGGGATGCCATGACCGACACACTAACAACCGCTCGGAGTCACCTAGTGCAG”: 3190 fluorescence intensity (a.u.); for “GCATGGCCCATCGTACTTGGCTTTGCCACCTTTCGGTGTGCGGAGTCACCTAGTGCAG”: 3300 fluorescence intensity (a.u.). The same measure for “TAAAATTATTATATTTTATAAGAAAGGTAACAAGTAAACACGGAGTCACCTAGTGCAG”: 28600 fluorescence intensity (a.u.); for “TATATATACACGTCTATACCCACACGTTGATTAATGCGAGCGGAGTCACCTAGTGCAG”: 4960 fluorescence intensity (a.u.). In the case of “AGCAGAGCTCGCGTGTCGTCGTGTCCTCTCCTCGTTGATCCGGAGTCACCTAGTGCAG”, the binding signal is 4550 fluorescence intensity (a.u.). The same measure for “GGACAACGAATTACCCTCACTCTCGTGTTCTCCGCTGAGTCGGAGTCACCTAGTGCAG”: 3460 fluorescence intensity (a.u.); for “CAAATCATGTCATCAAAATAATTACTCCGATCGCTAACACCGGAGTCACCTAGTGCAG”: 3410 fluorescence intensity (a.u.). The result for “TGTAAACTTTTATGATCATTTAGGAGCTCTGGACAGTAATCGGAGTCACCTAGTGCAG” reads 18200 fluorescence intensity (a.u.); that for “TAACCTTTTGATCGGATGTTAAGCAAGAACCATTAACTAGCGGAGTCACCTAGTGCAG”, 3670 fluorescence intensity (a.u.); that for “AATGGCTTACTGGCAAAATGATGCATCCGATGACCTCATTCGGAGTCACCTAGTGCAG”, 3330 fluorescence intensity (a.u.).

Take “TGGAGGTTATGAATCATACTCGGACGATAGTTAAGGGAGTCGGAGTCACCTAGTGCAG”: the binding signal is 49700 fluorescence intensity (a.u.). The same measure for “GGTACTAAACTCCACATGCATGCCATCTCATGAGGTGGGCCGGAGTCACCTAGTGCAG”: 3350 fluorescence intensity (a.u.); for “TAAATGGAAGAAACCACAAGTTTGTTCCACGCAATGCCCCCGGAGTCACCTAGTGCAG”: 5270 fluorescence intensity (a.u.). The same measure for “TGGTTGTATTAGGTTAATAAGCCACGTCAGTGAAAAGCACCGGAGTCACCTAGTGCAG”: 16100 fluorescence intensity (a.u.). For “AGCTGGGCCCCACACGTCATCCACCGCCGATCCTTTCGTTCGGAGTCACCTAGTGCAG”, the binding signal was 14500 fluorescence intensity (a.u.). In the case of “CTCAGCTCAGCTCACTCATCGGTAGCAGTGTGTACTCTAGCGGAGTCACCTAGTGCAG”, the binding signal is 3290 fluorescence intensity (a.u.). “TGTCATGCATCCATTAGAAGATGAGGCTATAGTTTTGTATCGGAGTCACCTAGTGCAG”: the binding signal is 26300 fluorescence intensity (a.u.). For the sequence “TTGATAGTGTTCAGAGGCAAGTGTGACCGGAGGTGGAGATCGGAGTCACCTAGTGCAG”, the binding signal was 3550 fluorescence intensity (a.u.). “GAGACTTTCTCGCGTGTCATTCAAACTAAGGCAACCTAAGCGGAGTCACCTAGTGCAG”: the binding signal is 4070 fluorescence intensity (a.u.). With “CGTGATTAGAATCCATCTCCGACCGACCGCACATACAAAGCGGAGTCACCTAGTGCAG”, the binding signal is 30700 fluorescence intensity (a.u.).

In the case of “GAAATGAGGGGTGGGATTGGGATTGGGATTGGAAAATGAACGGAGTCACCTAGTGCAG”, the binding signal is 3830 fluorescence intensity (a.u.). For the sequence “GGCGAAAATGCAGCACGTACGTGTATGCTAGCTTCAATTCCGGAGTCACCTAGTGCAG”, the binding signal was 3140 fluorescence intensity (a.u.). Consider “GTGGTGATCATGCCACGATGGAGACGAGTGGCCGAGTCGTCGGAGTCACCTAGTGCAG”, for which the binding signal is 3670 fluorescence intensity (a.u.). As for “GGATGATGCTTGGTGGGTAGGAGGACTAGGAGTGCGGCGGCGGAGTCACCTAGTGCAG”, the binding signal was 3500 fluorescence intensity (a.u.).

“CTGTGTGACAATATATATCGTTAACTTAACTATTATTCAACGGAGTCACCTAGTGCAG”: the binding signal is 5300 fluorescence intensity (a.u.).

For the origin of these results see publication PMC7819943, “Rice protein-binding microarrays: a tool to detect cis-acting elements near promoter regions in rice”.
